# Counter-ions that a name gives are not always drawn. Some of the results follow. The calls rarely recur for the same compound in another form.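 In K562 cells expressing nanoluciferase-fused kinases, luminescence was recorded at 4 h intervals between 2 and 18 h, normalized as percent of control with DMSO at 100% and a positive control at 0%. A significant (2 sigma) signal drop marks a time point as decreased. The authors' rule for a hit is not shown and takes in more than the number of time points.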
# By UniProt entry, the sequences of proteins in these tests, tags left out.
# UniProt Q16620, whole entry, looked up: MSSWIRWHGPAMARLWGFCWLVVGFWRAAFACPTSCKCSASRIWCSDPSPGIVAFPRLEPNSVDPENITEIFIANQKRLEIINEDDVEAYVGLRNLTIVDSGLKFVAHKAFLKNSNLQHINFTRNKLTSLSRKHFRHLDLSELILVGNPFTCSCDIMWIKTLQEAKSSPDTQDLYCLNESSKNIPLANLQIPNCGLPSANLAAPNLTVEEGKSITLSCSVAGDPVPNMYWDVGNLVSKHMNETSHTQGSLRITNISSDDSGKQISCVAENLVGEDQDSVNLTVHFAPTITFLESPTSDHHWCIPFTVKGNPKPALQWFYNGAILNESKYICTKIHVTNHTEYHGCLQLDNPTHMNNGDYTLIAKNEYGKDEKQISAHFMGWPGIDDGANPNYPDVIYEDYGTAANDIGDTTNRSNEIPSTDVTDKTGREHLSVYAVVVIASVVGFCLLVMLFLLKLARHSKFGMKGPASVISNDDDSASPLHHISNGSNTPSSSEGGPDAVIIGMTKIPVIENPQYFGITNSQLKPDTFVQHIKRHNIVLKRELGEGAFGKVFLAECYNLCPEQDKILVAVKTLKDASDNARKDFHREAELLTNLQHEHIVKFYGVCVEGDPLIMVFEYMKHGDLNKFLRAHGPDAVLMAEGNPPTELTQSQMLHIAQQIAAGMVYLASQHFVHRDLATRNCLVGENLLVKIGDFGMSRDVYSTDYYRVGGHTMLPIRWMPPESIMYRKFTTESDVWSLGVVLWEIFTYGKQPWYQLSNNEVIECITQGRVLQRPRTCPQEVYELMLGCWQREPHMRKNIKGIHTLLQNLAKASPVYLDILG
# Target: NTRK2 (UniProt Q16620)
# Test: number of time points (of 5) at which kinase-Nluc abundance scored as decreased, DMSO-normalised (count); higher = more persistent destabilization
# Settings: K562; 2-18 h
row,SMILES,number of time points
1,CN1C(=O)[C@@H](NC(=O)c2n[nH]c(Cc3ccccc3)n2)COc2ccccc21 (10 µM),0
2,O=C1NC(=Nc2c(Cl)cccc2Cl)S/C1=C\c1ccc2nccnc2c1 (2.5 µM),0
3,Cc1cccc(-c2[nH]c(C(C)(C)C)nc2-c2ccc3nccnc3c2)n1 (10 µM),0
4,O=C(Nc1cccc(C(F)(F)F)c1)c1cccc2cc(Oc3cc(CO)ncn3)ccc12 (10 µM),0
5,CNc1cc(Nc2cccn(-c3ccccn3)c2=O)nn2c(C(=O)N[C@@H]3C[C@@H]3F)cnc12 (2.5 µM),0
6,Cc1ccn2c(C(=O)C(=O)c3ccccc3)c(-c3ccccc3)nc2c1 (10 µM),0
7,COc1cc(N2CCOCC2)ccc1Nc1ncc(Cl)c(Nc2ccccc2NS(C)(=O)=O)n1 (2.5 µM),0
8,O=C(NC1CCOCC1)c1ccc(-c2cc(-c3c[nH]nc3-c3ccccn3)ccn2)cc1 (10 µM),0
9,O=C1NC(=O)/C(=C/c2ccc3nccc(-c4ccncc4)c3c2)S1 (10 µM),0
10,Cc1ncc(NC(=O)NC2c3ccccc3-c3ccccc32)c(-c2ccccc2)n1 (10 µM),0
11,CC(C)C[C@@H](C(=O)Nc1ccn(C[C@@H](O)CO)n1)N1CC(Oc2ccccc2Cl)=CC1=O [Dorzagliatin] (10 µM),0
12,O=C1O[C@H]([C@@H](O)CO)C(O)=C1OP(=O)(O)O [2-Phospho-L-ascorbic acid (trisodium)] (10 µM),0
13,C[C@@H]1CC(=O)c2c(ccc3c2C(=O)c2cccc(O)c2C3=O)C1 [Ochromycinone] (10 µM),0
14,Cc1c(-c2ccc(C(N)=O)c3[nH]c4cc(C(C)(C)O)ccc4c23)cccc1-n1cnc2ccccc2c1=O (2.5 µM),0
15,CC(C)(C)n1nc(Cc2ccccc2O)c2c(N)ncnc21 (10 µM),0
16,C=CC(=O)N1C(=O)CC(c2ccc(F)cc2)Sc2ccccc21 (stereo not drawn) [GSK-3β inhibitor 3] (10 µM),0
17,CCc1ccc(OCC(=O)Nc2ccc(F)c([N+](=O)[O-])c2)cc1 (10 µM),0
18,CN(C)c1nc2c(Br)c(Br)c(Br)c(Br)c2[nH]1 (10 µM),0
19,Nc1ncnc2c1c(-c1ccc(Oc3ccccc3)cc1)nn2C1CCN(CCOCCOCCOc2ccc3c(c2)CN(C2CCC(=O)NC2=O)C3=O)CC1 (centres undefined) (2.5 µM),0
20,Cc1cnc(NC2CCOCC2)nc1-n1cnc(C(=O)N[C@H](CN)c2cc(F)cc(Cl)c2)c1 (10 µM),0

row,SMILES,number of time points
1,FC(F)(F)c1ccc(/C=C/c2nc(COc3ccc(CCCCn4ccnn4)cc3)co2)cc1 [Mubritinib] (10 µM),0
2,Cc1cc2sc(NC(=O)Cc3ccccc3)nc2cc1Cl (10 µM),0
3,O=C(CNc1cccc(Cl)c1)NC1CCCN(c2ncnc3[nH]ccc23)C1 (centres undefined) (10 µM),0
4,Oc1ccc(/C=C/c2cc(O)cc(F)c2)cc1 [Resveratrol analog 1] (10 µM),0
5,CC/C(=N\NC(=O)c1ccnc(NCCCN2CCOCC2)c1)c1ccc(Cl)cc1O (2.5 µM),0
6,O[C@@H]1CO[C@H]2[C@@H]1OC[C@H]2Oc1nc2nc(-c3ccc(-c4ccccc4)cc3)c(Cl)cc2[nH]1 (10 µM),0
7,Nc1c(C(=O)NCc2ccc(C(=O)NCCCC3CCCCC3)cc2)cnn1-c1ccccc1 (2.5 µM),0
8,Cc1ccc(C(=O)Nc2sc(Nc3ccccc3)nc2C(N)=O)cc1 (10 µM),0
9,COc1cc(N(C)CCN(C)C)c(N)cc1Nc1nccc(-c2cn(C)c3ccccc23)n1 [Mutated EGFR-IN-1] (10 µM),0
10,CCN(CC)c1cc2oc(=O)c(-c3nc4ccccc4o3)cc2cc1C (2.5 µM),0
11,Cn1cc(-c2cnc3cnn(S(=O)(=O)c4cnc5ccc(-c6cnn(C)c6)cn45)c3c2)cn1 [Glumetinib] (10 µM),0
12,Cc1ccc(NC(=O)c2ccnc(C(F)(F)F)c2)cc1-c1cc(OCCO)nc(N2CCOCC2)c1 (10 µM),0
13,C=CC(=O)Nc1cccc(-c2cccc3cnc(Nc4ccc(N5CCN(CCO)CC5)c(F)c4F)nc23)c1 [Olafertinib] (2.5 µM),0
14,CC(C)(C[C@H](N)C(=O)O)C(F)F [NV-5138 (hydrochloride)] (10 µM),0
15,Cc1cc(C)nc(NS(=O)(=O)c2ccc(NC(=S)NC(=O)COc3ccc(Br)cc3Cl)cc2)n1 (2.5 µM),0
16,CC[C@@](C)(Nc1ccnc(-c2c[nH]c3ncccc23)n1)C(=O)NCC(F)(F)F [Decernotinib] (10 µM),0
17,COc1cc2ncnc(-n3nc(-c4ccccn4)nc3N)c2cc1OC (10 µM),0
18,O=C1/C(=C\c2ccc(Cl)cc2)C=C(c2ccccc2)N1c1ccc(O)cc1 (2.5 µM),0
19,Oc1ccc(/C=C/c2cc(O)cc(O)c2)cc1 [Resveratrol] (10 µM),0

# Fetched by compound from above (two):
row,SMILES,number of time points
2,Cc1cc2sc(NC(=O)Cc3ccccc3)nc2cc1Cl (10 µM),0
19,Oc1ccc(/C=C/c2cc(O)cc(O)c2)cc1 [Resveratrol] (10 µM),0

# Reference: the supplement of paper PMC12823440, “Inhibitors supercharge kinase turnover through native proteolytic circuits” (Nature, 2025)
